Test results taken from the supplement of paper PMC11006884.
The entries are a selection whose mix differs from that of the whole data set.

Sequences of proteins named here, by UniProt entry; tags and fusion partners are left off. A change or cut given only in a name is not applied to a line headed by its entry.
UniProt Q567U6, whole entry: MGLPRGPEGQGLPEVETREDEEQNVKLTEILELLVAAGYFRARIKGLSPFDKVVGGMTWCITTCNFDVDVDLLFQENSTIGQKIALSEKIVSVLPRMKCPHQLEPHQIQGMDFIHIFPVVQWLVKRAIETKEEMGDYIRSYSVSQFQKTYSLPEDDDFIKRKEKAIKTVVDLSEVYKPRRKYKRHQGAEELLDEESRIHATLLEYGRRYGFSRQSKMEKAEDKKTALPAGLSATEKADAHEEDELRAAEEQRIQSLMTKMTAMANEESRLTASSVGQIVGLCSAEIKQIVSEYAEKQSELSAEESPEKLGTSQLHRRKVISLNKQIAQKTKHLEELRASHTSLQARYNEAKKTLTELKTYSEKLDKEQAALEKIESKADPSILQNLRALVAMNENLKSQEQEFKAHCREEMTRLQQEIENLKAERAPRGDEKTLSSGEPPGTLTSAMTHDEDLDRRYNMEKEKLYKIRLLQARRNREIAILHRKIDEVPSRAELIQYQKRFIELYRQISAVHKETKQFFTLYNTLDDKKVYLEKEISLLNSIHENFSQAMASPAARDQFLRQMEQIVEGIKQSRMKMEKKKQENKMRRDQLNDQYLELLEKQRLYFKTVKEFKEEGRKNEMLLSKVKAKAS
UniProt Q15796, whole entry, looked up: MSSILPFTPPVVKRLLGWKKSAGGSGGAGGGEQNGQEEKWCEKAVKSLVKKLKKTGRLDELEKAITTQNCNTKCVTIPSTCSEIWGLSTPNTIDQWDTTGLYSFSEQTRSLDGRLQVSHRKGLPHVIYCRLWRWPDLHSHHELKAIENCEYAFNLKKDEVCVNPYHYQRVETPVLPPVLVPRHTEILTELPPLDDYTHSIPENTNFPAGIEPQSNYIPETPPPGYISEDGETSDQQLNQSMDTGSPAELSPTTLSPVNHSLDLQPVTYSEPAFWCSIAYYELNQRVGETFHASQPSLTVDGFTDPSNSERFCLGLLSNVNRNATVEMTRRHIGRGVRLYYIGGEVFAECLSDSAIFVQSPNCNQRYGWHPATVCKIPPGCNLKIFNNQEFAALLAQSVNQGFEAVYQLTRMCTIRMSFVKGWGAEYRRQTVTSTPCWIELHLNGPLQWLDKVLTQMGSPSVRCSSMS
UniProt Q4VC31: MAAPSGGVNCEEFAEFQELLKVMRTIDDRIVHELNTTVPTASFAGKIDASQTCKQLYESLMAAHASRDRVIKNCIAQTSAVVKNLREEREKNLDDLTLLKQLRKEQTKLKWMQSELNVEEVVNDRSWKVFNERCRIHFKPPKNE
UniProt Q17RS7: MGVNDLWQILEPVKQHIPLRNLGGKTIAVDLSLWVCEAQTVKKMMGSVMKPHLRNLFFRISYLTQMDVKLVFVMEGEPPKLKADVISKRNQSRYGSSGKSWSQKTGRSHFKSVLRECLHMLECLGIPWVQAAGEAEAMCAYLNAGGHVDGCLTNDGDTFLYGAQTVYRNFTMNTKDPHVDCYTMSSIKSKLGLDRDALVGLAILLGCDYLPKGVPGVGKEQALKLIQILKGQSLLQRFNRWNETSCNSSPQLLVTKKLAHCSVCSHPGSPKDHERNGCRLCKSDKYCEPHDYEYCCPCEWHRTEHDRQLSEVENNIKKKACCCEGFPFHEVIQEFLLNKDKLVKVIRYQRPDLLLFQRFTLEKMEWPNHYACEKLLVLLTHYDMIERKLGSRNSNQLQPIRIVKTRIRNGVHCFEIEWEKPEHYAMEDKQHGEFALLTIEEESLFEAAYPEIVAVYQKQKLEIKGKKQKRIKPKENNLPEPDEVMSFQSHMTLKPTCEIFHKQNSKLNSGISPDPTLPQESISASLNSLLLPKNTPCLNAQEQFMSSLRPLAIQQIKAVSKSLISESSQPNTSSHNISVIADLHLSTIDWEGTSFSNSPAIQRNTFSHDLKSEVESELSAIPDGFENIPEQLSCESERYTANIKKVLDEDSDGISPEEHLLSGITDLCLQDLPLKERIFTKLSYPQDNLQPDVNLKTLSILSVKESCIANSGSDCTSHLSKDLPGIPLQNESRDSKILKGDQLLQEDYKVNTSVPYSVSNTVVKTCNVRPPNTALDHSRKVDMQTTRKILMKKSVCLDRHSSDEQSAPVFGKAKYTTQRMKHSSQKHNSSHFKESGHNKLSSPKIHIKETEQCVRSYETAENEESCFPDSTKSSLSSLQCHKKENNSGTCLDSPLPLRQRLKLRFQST
UniProt Q16718, whole entry: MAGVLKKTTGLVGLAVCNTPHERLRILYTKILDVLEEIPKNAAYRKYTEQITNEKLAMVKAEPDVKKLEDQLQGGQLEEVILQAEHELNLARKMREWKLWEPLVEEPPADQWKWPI
UniProt Q15283: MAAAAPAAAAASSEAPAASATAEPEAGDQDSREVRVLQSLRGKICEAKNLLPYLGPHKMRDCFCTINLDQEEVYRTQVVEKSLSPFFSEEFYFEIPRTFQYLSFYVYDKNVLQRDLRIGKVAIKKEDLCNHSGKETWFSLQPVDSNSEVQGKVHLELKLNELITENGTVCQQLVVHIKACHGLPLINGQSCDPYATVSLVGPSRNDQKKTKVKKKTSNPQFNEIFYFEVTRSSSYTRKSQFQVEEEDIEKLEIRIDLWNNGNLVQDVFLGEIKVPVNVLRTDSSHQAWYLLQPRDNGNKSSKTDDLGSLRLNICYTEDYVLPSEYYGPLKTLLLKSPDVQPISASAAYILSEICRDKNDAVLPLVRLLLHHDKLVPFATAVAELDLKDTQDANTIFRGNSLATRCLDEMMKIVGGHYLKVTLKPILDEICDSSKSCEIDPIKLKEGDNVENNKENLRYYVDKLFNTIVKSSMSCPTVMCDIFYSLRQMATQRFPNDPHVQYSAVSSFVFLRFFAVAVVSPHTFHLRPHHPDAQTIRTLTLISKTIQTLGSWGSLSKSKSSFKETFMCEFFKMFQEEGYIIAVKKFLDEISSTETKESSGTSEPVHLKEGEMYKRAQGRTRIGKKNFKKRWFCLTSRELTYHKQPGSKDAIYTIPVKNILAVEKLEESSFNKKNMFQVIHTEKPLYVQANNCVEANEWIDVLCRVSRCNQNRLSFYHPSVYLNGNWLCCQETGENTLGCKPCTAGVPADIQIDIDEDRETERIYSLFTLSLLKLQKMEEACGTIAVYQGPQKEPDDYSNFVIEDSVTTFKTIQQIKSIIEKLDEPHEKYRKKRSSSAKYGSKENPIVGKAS
UniProt Q4VCS5: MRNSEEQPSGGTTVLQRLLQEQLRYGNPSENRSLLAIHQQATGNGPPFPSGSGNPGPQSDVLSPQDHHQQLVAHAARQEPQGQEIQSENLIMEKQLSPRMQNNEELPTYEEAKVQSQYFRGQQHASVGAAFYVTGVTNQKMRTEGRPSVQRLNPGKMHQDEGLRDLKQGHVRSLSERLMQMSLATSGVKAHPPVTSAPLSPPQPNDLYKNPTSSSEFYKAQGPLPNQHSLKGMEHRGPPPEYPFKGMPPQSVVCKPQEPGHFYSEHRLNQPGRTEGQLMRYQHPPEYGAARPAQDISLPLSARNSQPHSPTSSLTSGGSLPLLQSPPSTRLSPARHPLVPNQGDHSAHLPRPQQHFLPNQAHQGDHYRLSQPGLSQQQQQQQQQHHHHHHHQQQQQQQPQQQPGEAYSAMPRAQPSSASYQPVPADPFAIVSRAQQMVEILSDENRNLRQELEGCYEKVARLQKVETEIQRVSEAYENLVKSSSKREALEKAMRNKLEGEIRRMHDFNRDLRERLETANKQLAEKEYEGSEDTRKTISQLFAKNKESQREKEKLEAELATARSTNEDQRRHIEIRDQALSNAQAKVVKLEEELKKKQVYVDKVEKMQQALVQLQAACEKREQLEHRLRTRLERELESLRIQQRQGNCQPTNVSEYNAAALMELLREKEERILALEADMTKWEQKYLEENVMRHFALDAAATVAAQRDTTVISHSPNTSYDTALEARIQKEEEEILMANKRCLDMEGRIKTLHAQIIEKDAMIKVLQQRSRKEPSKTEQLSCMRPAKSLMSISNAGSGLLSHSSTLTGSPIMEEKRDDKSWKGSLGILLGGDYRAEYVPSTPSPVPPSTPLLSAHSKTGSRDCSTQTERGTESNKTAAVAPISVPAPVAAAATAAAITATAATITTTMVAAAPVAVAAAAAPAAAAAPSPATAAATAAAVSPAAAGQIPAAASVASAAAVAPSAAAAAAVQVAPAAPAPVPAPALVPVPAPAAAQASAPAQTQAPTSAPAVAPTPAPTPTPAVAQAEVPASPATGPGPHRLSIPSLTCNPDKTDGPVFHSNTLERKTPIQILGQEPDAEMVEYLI
UniProt Q15648, whole entry, looked up: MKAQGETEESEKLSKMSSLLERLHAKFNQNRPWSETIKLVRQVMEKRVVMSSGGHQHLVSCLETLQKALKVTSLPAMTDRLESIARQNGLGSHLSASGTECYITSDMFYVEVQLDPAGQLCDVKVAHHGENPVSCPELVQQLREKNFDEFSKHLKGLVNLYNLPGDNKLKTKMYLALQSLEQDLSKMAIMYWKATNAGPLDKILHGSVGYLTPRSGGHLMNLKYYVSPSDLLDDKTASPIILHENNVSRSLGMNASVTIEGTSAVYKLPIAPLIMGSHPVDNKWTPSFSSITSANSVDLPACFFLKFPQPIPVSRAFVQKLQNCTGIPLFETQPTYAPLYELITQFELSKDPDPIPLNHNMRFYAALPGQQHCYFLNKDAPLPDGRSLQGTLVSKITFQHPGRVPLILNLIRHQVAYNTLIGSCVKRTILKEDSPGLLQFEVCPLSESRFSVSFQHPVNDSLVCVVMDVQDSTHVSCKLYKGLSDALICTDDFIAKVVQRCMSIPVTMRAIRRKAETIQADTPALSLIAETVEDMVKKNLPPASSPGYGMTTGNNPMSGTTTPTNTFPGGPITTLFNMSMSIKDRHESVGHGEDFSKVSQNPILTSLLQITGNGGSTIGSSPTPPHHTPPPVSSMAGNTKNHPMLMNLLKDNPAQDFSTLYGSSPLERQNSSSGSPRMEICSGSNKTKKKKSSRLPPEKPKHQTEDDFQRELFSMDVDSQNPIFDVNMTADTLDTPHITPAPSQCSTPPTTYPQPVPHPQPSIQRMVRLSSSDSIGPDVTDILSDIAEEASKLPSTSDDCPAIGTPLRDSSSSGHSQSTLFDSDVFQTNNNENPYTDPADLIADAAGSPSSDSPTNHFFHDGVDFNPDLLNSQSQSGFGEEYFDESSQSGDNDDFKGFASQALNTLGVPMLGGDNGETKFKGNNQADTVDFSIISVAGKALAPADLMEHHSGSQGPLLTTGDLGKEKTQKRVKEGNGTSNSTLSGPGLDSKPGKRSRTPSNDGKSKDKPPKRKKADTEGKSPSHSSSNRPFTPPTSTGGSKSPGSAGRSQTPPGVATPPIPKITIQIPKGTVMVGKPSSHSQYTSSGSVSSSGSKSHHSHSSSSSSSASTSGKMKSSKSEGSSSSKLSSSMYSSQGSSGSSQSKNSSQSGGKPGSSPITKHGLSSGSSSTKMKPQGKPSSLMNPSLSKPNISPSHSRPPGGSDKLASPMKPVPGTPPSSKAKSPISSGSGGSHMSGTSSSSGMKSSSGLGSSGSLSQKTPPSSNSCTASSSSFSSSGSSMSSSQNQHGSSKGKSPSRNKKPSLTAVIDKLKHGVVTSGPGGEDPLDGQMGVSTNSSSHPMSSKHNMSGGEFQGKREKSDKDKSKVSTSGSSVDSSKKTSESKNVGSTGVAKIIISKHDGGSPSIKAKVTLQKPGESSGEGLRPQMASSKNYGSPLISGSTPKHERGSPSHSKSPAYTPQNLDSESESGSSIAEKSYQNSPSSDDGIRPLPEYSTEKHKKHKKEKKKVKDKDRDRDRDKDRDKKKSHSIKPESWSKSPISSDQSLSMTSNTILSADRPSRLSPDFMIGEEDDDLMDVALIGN
UniProt Q1KMD3: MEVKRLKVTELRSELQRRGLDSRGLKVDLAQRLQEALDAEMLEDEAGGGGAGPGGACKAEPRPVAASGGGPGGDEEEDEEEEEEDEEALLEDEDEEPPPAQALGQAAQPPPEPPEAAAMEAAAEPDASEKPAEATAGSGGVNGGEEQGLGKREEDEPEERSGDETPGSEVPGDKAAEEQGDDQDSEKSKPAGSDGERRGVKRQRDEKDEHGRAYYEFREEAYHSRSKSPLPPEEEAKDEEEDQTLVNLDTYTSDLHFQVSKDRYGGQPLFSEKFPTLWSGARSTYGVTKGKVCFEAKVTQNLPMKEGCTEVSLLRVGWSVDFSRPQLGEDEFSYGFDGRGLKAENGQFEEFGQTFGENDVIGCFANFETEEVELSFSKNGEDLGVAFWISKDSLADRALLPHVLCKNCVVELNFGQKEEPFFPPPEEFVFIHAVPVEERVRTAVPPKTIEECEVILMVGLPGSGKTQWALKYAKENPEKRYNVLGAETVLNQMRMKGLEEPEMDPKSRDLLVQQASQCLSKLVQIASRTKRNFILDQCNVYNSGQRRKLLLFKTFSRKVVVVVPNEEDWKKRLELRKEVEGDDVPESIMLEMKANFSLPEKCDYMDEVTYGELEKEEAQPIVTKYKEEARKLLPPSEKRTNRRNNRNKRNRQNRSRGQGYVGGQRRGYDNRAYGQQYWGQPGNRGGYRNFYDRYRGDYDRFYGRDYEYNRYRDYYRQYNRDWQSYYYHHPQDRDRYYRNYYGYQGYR

compound: COC(=O)C#Cc1ccccc1 [methyl 3-phenylpropiolate]; test: log2 ratio of iodoacetamide-alkyne labeling of the cysteine site, DMSO over compound (competition); higher = stronger covalent engagement of the cysteine by the compound, active = 1 or more; conditions: 500 µM; treatment time 1 h; system: HEK293T cell lysate
Procedure, shortened: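 HEK293T lysate at 2 mg/mL was treated with vehicle or electrophile (500 µM) for 1 h at ambient temperature, then labelled with iodoacetamide alkyne (1 h), clicked to sCIP-TMT reagents, pooled, digested with trypsin overnight at 37 °C, enriched on streptavidin and eluted with acid. Peptides were analysed by Orbitrap Eclipse LC-MS/MS with FAIMS and quantified in FragPipe, using duplicate channels and three replicates, with cysteines quantified in only one replicate excluded. The log2 competition ratio for each cysteine is the mean control-channel reporter intensity divided by the mean compound-channel reporter intensity.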

log2 ratio of iodoacetamide-alkyne labeling, inactive:
CSRP2 C167 (UniProt Q16527) -0.0209
PDIA6 C193 (UniProt Q15084) 0.272
PTGES3 C75 (UniProt Q15185) -0.0232
UniProt Q15149_C530 0.00328
ACOX1 C199 (UniProt Q15067) 0.0457
RABEP1 C350 (UniProt Q15276) 0.66
LRRC14 C71 (UniProt Q15048) 0.318
LRRC14 C221 (UniProt Q15048) -0.0893
TRIP6 C387 (UniProt Q15654) 0.15
CCDC93 C282 (UniProt Q567U6) 0.055
PDS5A C327 (UniProt Q29RF7) 0.448
SMAD2 C312 (UniProt Q15796) 0.118
SEC23B C180 (UniProt Q15437) 0.377
LLGL1 C483 (UniProt Q15334) 0.496
SLC39A14 C118 (UniProt Q15043) 0.815
PDS5A C1116 (UniProt Q29RF7) 0.182
CCDC58 C74 (UniProt Q4VC31) -0.211
ETFDH C118 (UniProt Q16134) 0.00175
PON2 C283 (UniProt Q15165) 0.138
SHB C392 (UniProt Q15464) 0.407
GEN1 C866 (UniProt Q17RS7) 0.785
PDCD4 C350 (UniProt Q53EL6) 0.261
TRIP6 C402 (UniProt Q15654) 0.245
SEC23B C767 (UniProt Q15437) 0.00601
UniProt Q15370_C89 -0.341
SEC23A C432 (UniProt Q15436) 0.163
ATG2A C1870 (UniProt Q2TAZ0) 0.179
NDUFA5 C17 (UniProt Q16718) 0.144
UniProt Q4ADV7_C182 -0.105
NONO C208 (UniProt Q15233) 0.111
RASA2 C314 (UniProt Q15283) -0.00025
ETFDH C387 (UniProt Q16134) 0.534
AMOT C1047 (UniProt Q4VCS5) 0.316
MED1 C443 (UniProt Q15648) 0.958
PDIA6 C55 (UniProt Q15084) -2.5e-05
PCK2 C431 (UniProt Q16822) -0.0705
HNRNPUL2 C538 (UniProt Q1KMD3) 0.485

Taken from the entries so far (3 entries):
log2 ratio of iodoacetamide-alkyne labeling, inactive:
UniProt Q15149_C530 0.00328
ACOX1 C199 (UniProt Q15067) 0.0457
RABEP1 C350 (UniProt Q15276) 0.66
